Assay results reported in patent publication US20110217715A1, “GENE EXPRESSION IN DUCHENNE MUSCULAR DYSTROPHY” (CHILDREN'S HOSPITAL MEDICAL CENTER, priority 2008, published 2011).
This continues a long series; more values of the same kind are listed elsewhere.

Test system: mRNA expression in peripheral blood of individuals with DMD
Assay: Whole-blood gene expression microarray: DMD administered deflazacort vs DMD administered prednisone
Format: in vivo, human
Method: Fifteen ml of blood was collected from each individual into 6 PAXgene® Vacutainer® tubes (PreAnalytiX, Germany) by antecubital fossa venipuncture. PAXgene® tubes contain a proprietary reagent that immediately stabilizes RNA, thus reducing RNA degradation and minimizing gene expression changes following phlebotomy. The tubes were then inverted 20 times, then remained undisturbed for 2 h at room temperature (about 19° C. to about 22° C.), and then stored at -70° C. until processed. Total RNA was isolated using the Paxgene® blood RNA kit (PreAnalytiX, Germany) according to the manufacturers instructions. The RNA isolated is from all cells in whole blood. Typical yields of total RNA isolated from about 7.5 ml of human whole blood were between 10 μg RNA and 40 μg RNA. RNA quality and purity was analyzed by spectrophotometry using the Nanodrop ND-1000, and RNA integrity was analyzed using the Agilent 2100 Bioanalyzer. […] Sample labeling, hybridization to chips, and image scanning were performed using standard Affymetrix protocols. For each whole blood sample from control individuals and individuals with DMD, total RNA was labeled using the One-Cycle Target Labeling protocol and hybridized to the arrays. […] Double-stranded cDNA synthesis, biotin-labeled cRNA synthesis, and cRNA fragmentation were performed according to the Affymetrix GeneChip Eukaryotic Expression Analysis protocol. The labeled, fragmented cRNA (15 μg) was hybridized at 45° C. overnight. After hybridization, the array was washed and stained. The arrays were scanned with an argon-ion laser at λ=570 nm, with a resolution of 3 μm/pixel (Affymetrix, Inc.). After scanning the array, the raw probe level values for each probe were saved in Affymetrix.cel files. […] Statistical analyses, including t-test analyses, unsupervised hierarchical clustering, and principal component analyses were conducted using Genespring 7.2 software ([…]® 7, Silicon Genetics, Redwood City Calif.). […] Corrections for multiple comparisons used a Benjamini-Hochberg False Discovery Rate (FDR) of 0.05, disclosed in Tang et al., J Cereb Blood Flow Metab 26 (2006) 1089, which is expressly incorporated by reference herein in its entirety. […] Sample processing and array hybridization, probe-level data analysis, and statistical analysis were identical to Example 1.

Question: For `CC(=O)OCC(=O)[C@@]12N=C(C)O[C@@H]1C[C@H]1[C@@H]3CCC4=CC(=O)C=C[C@]4(C)[C@H]3[C@@H](O)C[C@@]12C` [deflazacort], which p-value (SLIC1, AI081246, nucleic acid 2215, vs. prednisone) is on record?
Answer: 0.0159

Question: What about the p-value (SMARCA4, D26156, nucleic acid 2216, vs. prednisone) of the same compound?
Answer: 0.0291

Question: What about the p-value (SMC5L1, BC035661, nucleic acid 2217, vs. prednisone) of the same compound?
Answer: 0.0179

Question: What about the p-value (SND1, AI374686, nucleic acid 2218, vs. prednisone) of the same compound?
Answer: 0.0162

Question: What about the p-value (SNX1, AK098001, nucleic acid 2219, vs. prednisone) of the same compound?
Answer: 0.0426

Question: And the p-value (SOD2, W46388, nucleic acid 2220, vs. prednisone)?
Answer: 0.0239

Question: What about the p-value (SP2, D28588, nucleic acid 2222, vs. prednisone) of the same compound?
Answer: 0.0386

Question: And the p-value (SP3, N23846, nucleic acid 2223, vs. prednisone)?
Answer: 0.0499

Question: What about the p-value (SP110, AF280094, nucleic acid 2221, vs. prednisone) of the same compound?
Answer: 0.0401

Question: What about the p-value (SPAG9, BC007524, nucleic acid 2224, vs. prednisone) of the same compound?
Answer: 0.0493

Question: What about the p-value (ST8SIA4, AA352113, nucleic acid 1171, vs. prednisone) of the same compound?
Answer: 0.0441

Question: What about the p-value (STAT3, AA634272, nucleic acid 2226, vs. prednisone) of the same compound?
Answer: 0.0328

Question: What about the p-value (STAT3, AI139252, nucleic acid 2227, vs. prednisone) of the same compound?
Answer: 0.0405

Question: And the p-value (STAT3, BC000627, nucleic acid 2225, vs. prednisone)?
Answer: 0.025

Question: What about the p-value (STEAP4, AA650281, nucleic acid 2228, vs. prednisone) of the same compound?
Answer: 0.0195

Question: What about the p-value (SULT1A1, NM_001055, nucleic acid 2229, vs. prednisone) of the same compound?
Answer: 0.0233

Question: And the p-value (SULT1A3, SULT1A4, U08032, nucleic acid 2230, vs. prednisone)?
Answer: 0.0234

Question: And the p-value (SVIL, BC022883, nucleic acid 2231, vs. prednisone)?
Answer: 0.0273

Question: What about the p-value (SYK, AW467357, nucleic acid 2232, vs. prednisone) of the same compound?
Answer: 0.0336

Question: What about the p-value (Similar to hypothetical protein FLJ36144, Genbank AI090764, Nucleic Acid No. 2280) of the same compound?
Answer: 0.00719

Question: And the p-value (Similar to transcript increased in spermiogenesis 78, Genbank AK026679, Nucleic Acid No. 2331)?
Answer: 0.044

Question: And the p-value (TAL1, AW300901, nucleic acid 2322, vs. prednisone)?
Answer: 0.0248

Question: And the p-value (TAX1BP3, AF234997, nucleic acid 2233, vs. prednisone)?
Answer: 0.027

Question: What about the p-value (TBC1D22A, AI597838, nucleic acid 2234, vs. prednisone) of the same compound?
Answer: 0.0353

Question: What about the p-value (TGFB1, BC000125, nucleic acid 2235, vs. prednisone) of the same compound?
Answer: 0.0114

Question: And the p-value (TGFBR3, NM_003243, nucleic acid 2236, vs. prednisone)?
Answer: 0.0469

Question: And the p-value (TGOLN2, NM_006464, nucleic acid 1425, vs. prednisone)?
Answer: 0.00127

Question: And the p-value (THRAP2, AK025348, nucleic acid 2237, vs. prednisone)?
Answer: 0.04

Question: And the p-value (TIAF1, MYO18A, NM_004740, nucleic acid 2238, vs. prednisone)?
Answer: 0.0229

Question: What about the p-value (TJP2, NM_004817, nucleic acid 675, vs. prednisone) of the same compound?
Answer: 0.0455

Question: What about the p-value (TLE3, AI567426, nucleic acid 2239, vs. prednisone) of the same compound?
Answer: 0.0127

Question: And the p-value (TLE3, NM_005078, nucleic acid 2240, vs. prednisone)?
Answer: 0.0216

Question: And the p-value (TLR1, AL050262, nucleic acid 2241, vs. prednisone)?
Answer: 0.0328

Question: And the p-value (TMCC1, AB018322, nucleic acid 1003, vs. prednisone)?
Answer: 0.0328

Question: What about the p-value (TMCC1, AI934469, nucleic acid 2242, vs. prednisone) of the same compound?
Answer: 0.0345

Question: And the p-value (TMEM16F, AL041280, nucleic acid 2243, vs. prednisone)?
Answer: 0.0268

Question: What about the p-value (TMPRSS6, AL022314, nucleic acid 2323, vs. prednisone) of the same compound?
Answer: 0.0304

Question: And the p-value (TNFSF10, NM_003810, nucleic acid 2244, vs. prednisone)?
Answer: 0.0148

Question: What about the p-value (TNFSF10, U57059, nucleic acid 2245, vs. prednisone) of the same compound?
Answer: 0.0367

Question: What about the p-value (TNFSF13, TNFSF12-TNFSF13, AF114011, nucleic acid 2247, vs. prednisone) of the same compound?
Answer: 0.0208

Question: What about the p-value (TNFSF13, TNFSF12-TNFSF13, AF114013, nucleic acid 2246, vs. prednisone) of the same compound?
Answer: 0.012

Question: And the p-value (TNFSF13B, AF134715, nucleic acid 2248, vs. prednisone)?
Answer: 0.0196

Question: And the p-value (TNRC5, AF161347, nucleic acid 2249, vs. prednisone)?
Answer: 0.00226

Question: What about the p-value (TPARL, AW665624, nucleic acid 939, vs. prednisone) of the same compound?
Answer: 0.0263

Question: What about the p-value (TPP1, BG231932, nucleic acid 2250, vs. prednisone) of the same compound?
Answer: 0.00621

Question: What about the p-value (TPP1, NM_000391, nucleic acid 920, vs. prednisone) of the same compound?
Answer: 0.000155

Question: What about the p-value (TRIM8, NM_030912, nucleic acid 2252, vs. prednisone) of the same compound?
Answer: 0.00322

Question: And the p-value (TRIM38, AI809831, nucleic acid 2251, vs. prednisone)?
Answer: 0.018

Question: What about the p-value (Transcribed locus, Genbank AI718964, Nucleic Acid No. 2292) of the same compound?
Answer: 0.0211

Question: And the p-value (Transcribed locus, Genbank AI916948, Nucleic Acid No. 1660)?
Answer: 0.0303

Question: What about the p-value (Transcribed locus, Genbank AW293956, Nucleic Acid No. 2300) of the same compound?
Answer: 0.0326

Question: And the p-value (Transcribed locus, Genbank AW451107, Nucleic Acid No. 2283)?
Answer: 0.0133

Question: And the p-value (Transcribed locus, Genbank AW954199, Nucleic Acid No. 2333)?
Answer: 0.0452

Question: What about the p-value (Transcribed locus, Genbank BF514098, Nucleic Acid No. 2330) of the same compound?
Answer: 0.0439

Question: And the p-value (Transcribed locus, Genbank H94876, Nucleic Acid No. 2329)?
Answer: 0.0435

Question: What about the p-value (Transcribed locus, weakly similar to NP_060312.1, Genbank AA838727, Nucleic Acid No. 2282) of the same compound?
Answer: 0.0115

Question: And the p-value (U20489, nucleic acid 2281, vs. prednisone)?
Answer: 0.0108

Question: What about the p-value (UBE2D3, AI239832, nucleic acid 2253, vs. prednisone) of the same compound?
Answer: 0.0322

Question: What about the p-value (UBE2J1, N64079, nucleic acid 2254, vs. prednisone) of the same compound?
Answer: 0.0247

Question: And the p-value (UBE3B, AK022019, nucleic acid 2255, vs. prednisone)?
Answer: 0.0134

Question: What about the p-value (USP15, AU156202, nucleic acid 2256, vs. prednisone) of the same compound?
Answer: 0.0357

Question: And the p-value (VCL, NM_014000, nucleic acid 2257, vs. prednisone)?
Answer: 0.000443

Question: And the p-value (VPS37C, BM452172, nucleic acid 2258, vs. prednisone)?
Answer: 0.00954

Question: And the p-value (VPS41, AF135593, nucleic acid 342, vs. prednisone)?
Answer: 0.0126

Question: And the p-value (WARS, NM_004184, nucleic acid 2259, vs. prednisone)?
Answer: 0.0139

Question: And the p-value (WASL, AK025323, nucleic acid 2260, vs. prednisone)?
Answer: 0.0268

Question: And the p-value (WDR40A, AL555107, nucleic acid 2324, vs. prednisone)?
Answer: 0.0469

Question: What about the p-value (WIRE, AK026913, nucleic acid 2261, vs. prednisone) of the same compound?
Answer: 0.00508

Question: What about the p-value (WNK1, AL049278, nucleic acid 2262, vs. prednisone) of the same compound?
Answer: 0.0169

Question: And the p-value (XPO1, BC041658, nucleic acid 2263, vs. prednisone)?
Answer: 0.0377

Question: And the p-value (YOD1, AF090896, nucleic acid 2325, vs. prednisone)?
Answer: 0.0189

Question: What about the p-value (YWHAH, NM_003405, nucleic acid 1807, vs. prednisone) of the same compound?
Answer: 0.018

Question: And the p-value (ZAK, AW069181, nucleic acid 2264, vs. prednisone)?
Answer: 0.00126

Question: What about the p-value (ZCCHC2, AU147903, nucleic acid 2266, vs. prednisone) of the same compound?
Answer: 0.0424

Question: And the p-value (ZCCHC2, BE676543, nucleic acid 2265, vs. prednisone)?
Answer: 0.0109

Question: And the p-value (ZCCHC2, NM_017742, nucleic acid 677, vs. prednisone)?
Answer: 0.022

Question: What about the p-value (ZCCHC6, AA584428, nucleic acid 2267, vs. prednisone) of the same compound?
Answer: 0.0477

Question: What about the p-value (ZFHX1B, AF086037, nucleic acid 2268, vs. prednisone) of the same compound?
Answer: 0.0124

Question: What about the p-value (ZFHX1B, AI623184, nucleic acid 2269, vs. prednisone) of the same compound?
Answer: 0.0233

Question: What about the p-value (ZFP36L1, BE620915, nucleic acid 2270, vs. prednisone) of the same compound?
Answer: 0.0409

Question: What about the p-value (ZNF160, AA701249, nucleic acid 1369, vs. prednisone) of the same compound?
Answer: 0.028

Question: And the p-value (ZNF264, NM_003417, nucleic acid 2271, vs. prednisone)?
Answer: 0.00262

Question: What about the p-value (ZNF595, AI580142, nucleic acid 2326, vs. prednisone) of the same compound?
Answer: 0.00776

Question: What about the p-value (ZNF626, NM_145297, nucleic acid 2327, vs. prednisone) of the same compound?
Answer: 0.0179

Question: And the p-value (ZNF652, NM_014897, nucleic acid 2272, vs. prednisone)?
Answer: 0.0417

Question: And the p-value (ZYG11B, AV701229, nucleic acid 2273, vs. prednisone)?
Answer: 0.00211

Question: And the p-value (ZYG11B, N21008, nucleic acid 2274, vs. prednisone)?
Answer: 0.0262

Question: And the p-value (ZYX, BC002323, nucleic acid 2275, vs. prednisone)?
Answer: 0.0212

Question: And the p-value (gene BGR, Genbank AW341515, Nucleic Acid No. 2310)?
Answer: 0.00516

Question: And the p-value (gene C1orf128, Genbank AF271784, Nucleic Acid No. 2311)?
Answer: 0.031

Question: What about the p-value (gene CDC27, Genbank AA166684, Nucleic Acid No. 2312) of the same compound?
Answer: 0.0359

Question: And the p-value (gene FGFR1OP2, Genbank W74643, Nucleic Acid No. 1750)?
Answer: 0.0301

Question: And the p-value (gene FLJ37562, Genbank BF436799, Nucleic Acid No. 2313)?
Answer: 0.0328
